PubChem BioAssay AID1487 (National Center for Advancing Translational Sciences (NCATS), 2009)
Some of the results follow. These are further read-outs of the screen, such as a control signal, another cell line or another target. No call is given for them. Most of these compounds were active or inconclusive in the main read-out, so they are no random draw. Words in brackets tell the shape of the fitted curve; partial curves, single points and poor fits give uncertain potencies.

Test: qHTS Assay for Modulators of Lamin A Splicing
Settings: HeLa LMNA splicing GFP/RFP minigene ratio, 48 h
Summary of the method: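 S3 HeLa stable clones carrying a lamin A-EGFP splicing minigene plus DsRed2 were seeded at 600 cells/well in Opti-MEM with 2% FBS, pin-dosed and incubated 48 h at 37°C. Acumen cytometry (488 nm) gave the GFP/RFP total-intensity ratio.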

[1] = measured here: RFP viability control channel
[2] = measured here: GFP splicing reporter channel

In the case of `CCOc1cc(N2CCOCC2)c(OCC)cc1NC(=O)Cc1ccc(OC)c(OC)c1`, the AC50 [1] is reported as 12.6 µM [rising, partial curve].
For `COc1cc(N)c(Cl)cc1C(=O)NC1CCN(Cc2ccccc2)CC1`, the AC50 [2] was 0.282 µM [falling, full curve] and the AC50 [1] was 1.12 µM [rising, partial curve, poor fit].
In the case of `N[C@H](Cc1cc(I)c(Oc2ccc(O)c(I)c2)c(I)c1)C(=O)O`, the AC50 [2] is reported as 5.62 µM [falling, single point] and the AC50 [1] is reported as 12.6 µM [falling, single point].
In the case of `COc1ccc(Nc2nc(N3CCCC3)nc3ccccc23)c(OC)c1`, the AC50 [1] is reported as 20 µM [rising, partial curve, poor fit].
In the case of `c1ccc2c(c1)ncn2CCOCCOCCn1cnc2ccccc21`, the AC50 [1] is reported as 35.5 µM [rising, single point].
In the case of `O=C1CC(/C=C/c2cccnc2)=Nc2ccccc2N1`, the AC50 [1] is reported as 35.5 µM [rising, single point].
With `COc1ccc(CCNc2ncnc3[nH]ncc23)cc1OC` the AC50 [1] was 35.5 µM [rising, single point].
For `S=P(N1CC1)(N1CC1)N1CC1`, the AC50 [2] was 0.141 µM [falling, full curve, poor fit] and the AC50 [1] was 10 µM [rising, partial curve].
With `CCOc1ccccc1CNC(=O)C1CCN(S(=O)(=O)c2c(C)noc2/C=C/c2ccc(C)cc2)CC1` the AC50 [2] was 11.2 µM [falling, partial curve, poor fit] and the AC50 [1] was 10 µM [falling, partial curve].
In the case of `COc1ccc(NC(=O)c2ccc3ccccc3n2)cc1S(=O)(=O)N1CCCCC1`, the AC50 [1] is reported as 22.4 µM [rising, single point].
With `O=C(Nc1cccc(S(=O)(=O)NC2=NCCCCC2)c1)c1cc(-c2ccncc2)nc2ccccc12` the AC50 [1] was 11.2 µM [rising, single point].
In the case of `COc1ccc(/C=C/C(=O)N2CCN(c3ccccc3)CC2)cc1S(=O)(=O)N1CCOCC1`, the AC50 [2] is reported as 17.8 µM [falling, partial curve, poor fit].
With `CSc1ncccc1C(=O)N1CCCC(C(=O)c2ccc3ccccc3c2)C1` (stereo not given) the AC50 [2] was 8.91 µM [falling, partial curve] and the AC50 [1] was 11.2 µM [falling, partial curve, poor fit].
With `COc1ccc(/C=N/NC(=O)CNC(=O)c2ccc(S(=O)(=O)N3CCCC3)cc2)c(OC)c1` the AC50 [1] was 0.2 µM [falling, full curve, poor fit].
With `CCCOc1ccc2oc(=O)c3c(c2c1)CCCN3C(=O)CN(C)Cc1ccccc1` the AC50 [2] was 15.8 µM [rising, single point] and the AC50 [1] was 17.8 µM [rising, partial curve].
For `CCC(C(=O)c1ccc(O)cc1)c1ccccc1` (stereo not given), the AC50 [2] was 14.1 µM [rising, single point] and the AC50 [1] was 22.4 µM [rising, single point].
For `CCCCOC(=O)c1[nH]c2c(c1C)C(=O)CC(c1cc(OC)c(OC)c(OC)c1)C2` (stereo not given), the AC50 [1] was 0.0398 µM [rising, full curve, poor fit].
In the case of `COc1ccc(CNC(=O)C(C)N2Cc3ccccc3C2=O)cc1` (stereo not given), the AC50 [2] is reported as 0.0891 µM [falling, full curve, poor fit].
For `N#Cc1c(-c2ccc3c(c2)OCO3)ccn2nc(-c3cccc(C(F)(F)F)c3)nc12`, the AC50 [2] was 22.4 µM [falling, single point] and the AC50 [1] was 20 µM [falling, partial curve].
With `CCOC(=O)c1c(NC(=O)c2cnn3c2NC(c2cccc(OC)c2)CC3C(F)(F)F)sc2c1CCCC2` (stereo not given) the AC50 [1] was 3.55 µM [rising, full curve, poor fit].
For `O=C(COC(=O)C12CC3CC(CC(Br)(C3)C1)C2)Nc1cccnc1Cl`, the AC50 [2] was 3.98 µM [falling, partial curve, poor fit] and the AC50 [1] was 0.00891 µM [falling, full curve].
For `O=C(CSc1nc2ncc(Br)cc2[nH]1)c1cccc([N+](=O)[O-])c1`, the AC50 [2] was 17.8 µM [falling, partial curve].
In the case of `O=C(NCc1cccnc1)/C(=C\c1ccc(-c2ccc(Cl)c(Cl)c2)o1)S(=O)(=O)c1ccccc1`, the AC50 [2] is reported as 17.8 µM [falling, single point] and the AC50 [1] is reported as 3.55 µM [falling, full curve].
For `CCCCN(CC)S(=O)(=O)c1ccc(C(=O)Nc2nnc(-c3ccccc3Cl)o2)cc1`, the AC50 [1] was 7.94 µM [rising, partial curve].
With `Nc1nc(N)nc(-c2cc(Cl)ccc2Cl)n1` the AC50 [2] was 1.26 µM [falling, single point].
For `CN(Cc1cccc(Cl)c1Cl)c1ccc(S(=O)(=O)N2CCCCC2)cc1[N+](=O)[O-]`, the AC50 [2] was 11.2 µM [rising, partial curve] and the AC50 [1] was 25.1 µM [rising, partial curve].
With `O=C(NNc1nc(-c2ccccc2)c2cc(Br)ccc2n1)c1ccc(S(=O)(=O)N2CCOCC2)cc1` the AC50 [2] was 6.31 µM [rising, partial curve] and the AC50 [1] was 12.6 µM [rising, partial curve].
In the case of `O=C(NCc1ccccc1Cl)c1ccc(CSCc2cccc(F)c2)o1`, the AC50 [2] is reported as 10 µM [rising, partial curve, poor fit] and the AC50 [1] is reported as 28.2 µM [rising, single point].
For `COc1cc(OC)c(C2=NOC(C(=O)NCc3ccc4c(c3)OCO4)C2)cc1Cl` (stereo not given), the AC50 [1] was 25.1 µM [rising, single point].
For `C=CCOc1c(OC)cc(Cl)cc1C1NC(=O)NC(C)=C1C(C)=O` (stereo not given), the AC50 [2] was 14.1 µM [rising, partial curve, poor fit].
In the case of `CCN1CCCC1CNC(=O)c1cc(S(=O)(=O)CC)c(N)cc1OC` (stereo not given), the AC50 [2] is reported as 3.16 µM [rising, single point] and the AC50 [1] is reported as 3.98 µM [rising, single point].
In the case of `COCc1cc(=O)[nH]c(/N=C(\N)Nc2ccc(Oc3ccccc3)cc2)n1`, the AC50 [1] is reported as 0.01 µM [falling, full curve, poor fit].
In the case of `Cc1ccc(NC(c2nnc(-c3ccccc3)o2)c2ccccc2F)c([N+](=O)[O-])c1` (stereo not given), the AC50 [2] is reported as 15.8 µM [falling, partial curve] and the AC50 [1] is reported as 3.16 µM [rising, single point].
For `O=[N+]([O-])c1ccc(N2CCN(c3ccc(O)cc3)CC2)c(Cl)c1`, the AC50 [1] was 14.1 µM [rising, partial curve].
With `CC1C/C(=N/Nc2nc3ccccc3[nH]2)CC(C)(C)C1` (stereo not given) the AC50 [2] was 11.2 µM [rising, partial curve, poor fit] and the AC50 [1] was 22.4 µM [rising, partial curve].
For `O=C(c1ccc(Cl)s1)N1CCN(c2nc3ccccc3s2)CC1`, the AC50 [1] was 11.2 µM [rising, single point].
With `Oc1c(C(c2ccc(Cl)cc2)N2CCCC2)cc(Cl)c2cccnc12` (stereo not given) the AC50 [2] was 3.55 µM [falling, partial curve] and the AC50 [1] was 22.4 µM [falling, partial curve, poor fit].
For `Cc1cccc(C)c1OC[C@H](C)N`, the AC50 [2] was 0.0631 µM [falling, full curve, poor fit] and the AC50 [1] was 3.16 µM [rising, single point].
With `Cc1cccc(C)c1Nc1nnc(SCC(=O)Nc2sccc2C#N)s1` the AC50 [2] was 1.12 µM [rising, single point] and the AC50 [1] was 3.98 µM [rising, partial curve, poor fit].
In the case of `O=C(O)c1ccccc1Nc1ccc([N+](=O)[O-])cc1`, the AC50 [1] is reported as 3.16 µM [rising, partial curve].
With `COc1ccccc1CNC(=O)CCC1N=C2c3ccccc3N=C(SCc3ccccc3Cl)N2C1=O` (stereo not given) the AC50 [1] was 6.31 µM [falling, single point].
For `O=C(CCCCCCN1C(=O)c2ccccc2C1=O)Nc1nccs1`, the AC50 [2] was 31.6 µM [rising, single point].
For `C=C(C)[C@@H]1CCC2(C(=O)O)CC[C@]3(C)[C@H](CC[C@@H]4[C@@]5(C)CCC(=O)C(C)(C)[C@@H]5CC[C@]43C)[C@@H]12` (stereo not given in full), the AC50 [2] was 0.0891 µM [rising, full curve, poor fit] and the AC50 [1] was 0.794 µM [rising, full curve].
With `CCOC(=O)c1sc2ccccc2c1S(=O)(=O)NCc1ccc(F)cc1` the AC50 [2] was 3.98 µM [falling, partial curve, poor fit].
For `COC(=O)c1cc2c(ccn2-c2ccc(F)cc2)n1Cc1ccc(C#N)cc1`, the AC50 [2] was 15.8 µM [rising, single point] and the AC50 [1] was 28.2 µM [rising, single point].
In the case of `CCOC(=O)c1c(C)c(C(=O)Nc2ccc(N(C)C)cc2)c(C)n1CC`, the AC50 [1] is reported as 22.4 µM [rising, single point].
In the case of `Cc1ccc(C)c(NC(=S)N/N=C/C(C)c2ccccc2)c1` (stereo not given), the AC50 [2] is reported as 10 µM [rising, partial curve, poor fit].
With `O=[N+]([O-])c1ccc(N/N=C/c2sc(N3CCOCC3)nc2-c2ccccc2)c(S(=O)(=O)Nc2ccc(Cl)cc2)c1` the AC50 [2] was 11.2 µM [falling, partial curve] and the AC50 [1] was 12.6 µM [falling, partial curve, poor fit].
In the case of `Cc1ccc2nc(/C(C#N)=C\c3ccc([N+](=O)[O-])o3)[nH]c2c1`, the AC50 [2] is reported as 5.62 µM [falling, single point] and the AC50 [1] is reported as 5.62 µM [falling, single point].
With `O=C(NC(=S)NCC1CCCO1)c1ccccc1` (stereo not given) the AC50 [2] was 0.178 µM [falling, full curve, poor fit].
With `COc1ccc(-c2nnc(SCc3csc(N)n3)n2C)cc1` the AC50 [1] was 3.98 µM [rising, partial curve, poor fit].
In the case of `Fc1ccc(CSc2nc3ccccc3[nH]2)cc1`, the AC50 [1] is reported as 31.6 µM [rising, single point].
